The other results are listed elsewhere or left out. The main result of the screen is listed elsewhere. These columns were measured beside it and carry no call. The list favours compounds with an active or inconclusive main result. Potencies come from curve fits of mixed quality, noted in brackets.
Assay: qHTS Assay to Find Inhibitors of Chronic Active B-Cell Receptor Signaling
Settings: ABC-DLBCL IkBa-CBG/CBR reporter, luminescence ratio (green luciferase fused to IkBa over red control in TMD8 lymphoma cells), 4 h
Summary of the method: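 Cell line TMD8 (human ABC DLBCL), stably expressing tet-inducible CBG68-IkBa fusion and CBR; IMDM/0.5% FBS; cpd up to 46 uM; dox induction, 4 h, 37C/5% CO2; dual luminescence; green/red ratio; MG132 control.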

[1] = measured here: IkBa-CBG green luminescence
[2] = measured here: CBR red luminescence, cell number

Compound | AC50 [1] | AC50 [2]
O=C(O)CNC(=O)C(CS)Cc1ccccc1 (stereo not given) | 4.11 µM [falling, partial curve, poor fit] | –
O=C(CSCc1ccccc1Cl)N1CCN(c2ccccn2)CC1 | – | 14.6 µM [rising, partial curve, poor fit]
Cc1ccc2c(c1)C1CC(C)(O2)N(c2cccc(C(=O)N3CCN(c4ccccn4)CC3)c2)C(=O)N1 (stereo not given) | – | 0.251 µM [rising, full curve, poor fit]
CCCN(c1ccccc1F)S(=O)(=O)c1cc(-c2cc(C)no2)ccc1OC | – | 14.1 µM [falling, partial curve, poor fit]
Cc1nonc1C(=O)N/N=C/c1ccc(O)c(O)c1 | – | 29.1 µM [falling, single point]
O=C(C1CCCCC1)N1CCN(S(=O)(=O)c2ccc(Br)cc2)CC1 | – | 0.562 µM [falling, full curve, poor fit]
CCN(CC)C(=O)CC(c1ccc(N(C)C)cc1)c1c(OC)cc(OC)c2ccc(=O)oc12 (stereo not given) | – | 0.355 µM [rising, full curve, poor fit]
O=[N+]([O-])c1cccc(CN2CCN(c3ncccn3)CC2)c1 | – | 35.5 µM [rising, single point]
COc1ccc(NC(=O)Cn2nnc(C(=O)NCc3ccc4c(c3)OCO4)c2N)c(OC)c1 | – | 17.8 µM [rising, single point]
N#Cc1c(N2C(=O)c3ccc(C(=O)O)cc3C2=O)sc2c1CCCC2 | – | 17.8 µM [falling, partial curve, poor fit]
O=C(NCc1ccco1)C1CCN(Cc2ccc(F)cc2)CC1 | – | 32.6 µM [falling, single point]
CS(=O)(=O)N(CC(=O)Nc1ccc(F)c(F)c1)c1cccc([N+](=O)[O-])c1 | – | 3.66 µM [falling, partial curve, poor fit]
O=C1N/C(=N\N=C\c2cccs2)SC1Cc1cccc(Cl)c1 (stereo not given) | 20.6 µM [falling, single point] | 7.31 µM [rising, partial curve]
Cc1ccc2c(c1)-n1c(nc3ccc(C)cc3c1=O)C(Cc1ccc(O)cc1)NC2=O (stereo not given) | – | 10.3 µM [rising, partial curve]
O=C(c1cn(-c2ccccc2)nc1-c1cccnc1)N1CCCCC1 | – | 10 µM [rising, partial curve, poor fit]
CCCNC(=O)Cc1c(C)n(C(=O)c2ccc(Cl)cc2)c2ccc(OC)cc12 | – | 35.5 µM [falling, single point]
COc1ccc(NS(=O)(=O)c2cc(NC(=O)CNC(=O)c3cccc(OC)c3)ccc2C)cc1 | 25.9 µM [falling, partial curve, poor fit] | 3.66 µM [rising, full curve, poor fit]
Cc1ccc(Cn2nnc3c(=O)[nH]c(C4CCN(S(=O)(=O)c5ccc(F)cc5)CC4)nc32)cc1 | 18.4 µM [rising, partial curve] | 5.8 µM [falling, partial curve]
Cc1ccnc(NC(=O)CCC(=O)N(CC(=O)NC(C)(C)C)c2ccc3c(c2)OCO3)c1 | – | 0.112 µM [falling, full curve, poor fit]
CC1=C(C(=O)N2CCCC(C(=O)c3cccc4ccccc34)C2)OCCO1 (stereo not given) | – | 15.8 µM [falling, single point]

Compound | AC50 [1] | AC50 [2]
CC1=C(C(=O)OCc2ccccc2)C(c2cccs2)NC(=O)N1CCCC(=O)O (stereo not given) | – | 16.4 µM [rising, single point]
COc1ccc(C(=O)NCC(=O)NCC(=O)OCC(=O)C(C)(C)C)cc1 | – | 7.31 µM [rising, partial curve, poor fit]
O=C(Nc1ccc(-c2csnn2)cc1)C(Cl)(Cl)Cl | – | 35.5 µM [falling, single point]
CCN(C(=O)c1ccccc1F)c1nc(-c2ccc(OC)cc2)cs1 | – | 12.6 µM [rising, partial curve]
COc1ccc(NC(=O)Nc2cc(C)ccc2F)cc1 | – | 23.1 µM [falling, partial curve]
Cc1cccn2c(=O)c3cc(C(=O)NC(C)C)c(=N)n(Cc4ccncc4)c3nc12 | – | 2.59 µM [rising, partial curve, poor fit]
Cc1cc(C)n(CCC(=O)Nc2ccc3c(c2)OCCO3)n1 | – | 22.4 µM [falling, partial curve, poor fit]
C=CCn1c(SCC(O)Cn2c3ccccc3c3ccccc32)nnc1-c1ccco1 (stereo not given) | – | 0.366 µM [falling, full curve, poor fit]
COc1ccc(N=C(NN)c2ccc3ccccc3n2)cc1 | – | 3.66 µM [rising, partial curve, poor fit]
CCOC(=O)c1c(NC(=O)COC(=O)c2ccccn2)sc2c1CCC2 | – | 29.1 µM [rising, single point]
Cc1cc(C)cc(OCC(=O)O/N=C(\N)c2ccccn2)c1 | – | 20.6 µM [falling, partial curve]
COc1ccccc1N(CC(O)Cn1c2ccccc2c2ccccc21)S(=O)(=O)c1ccccc1 (stereo not given) | – | 16.4 µM [falling, partial curve, poor fit]
O=C(OCC(=O)N1CCc2ccccc2C1)c1c(F)cccc1Cl | – | 2.59 µM [rising, partial curve, poor fit]
Cc1ccc(NC(=O)COn2nnc3ccc(S(=O)(=O)N(C)C)cc32)cc1F | – | 18.4 µM [falling, single point]
CC(Sc1nc(-c2ccccc2)cc(=O)[nH]1)C(=O)O (stereo not given) | – | 0.146 µM [falling, full curve, poor fit]
Cc1ccc2c(C)nc(NC3=NCN(Cc4ccccc4)CN3)nc2c1 | – | 29.1 µM [falling, single point]
Cc1cc(NC(=O)/C=C/C(=O)N(c2ccccc2C)C(C(=O)NC2CCCC2)c2ccc(F)cc2)no1 (stereo not given) | – | 7.08 µM [falling, partial curve, poor fit]
Cc1ccc(NC(=O)CC2COc3ccccc3O2)cc1 (stereo not given) | – | 0.562 µM [rising, full curve, poor fit]
O=c1cc(/C=C/c2ccccc2)oc2ccccc12 | 23.1 µM [falling, partial curve, poor fit] | 18.4 µM [falling, single point]
Cc1cc(C(=O)NN=Cc2c(C)[nH]c3ccccc23)c(C)o1 | – | 14.6 µM [falling, partial curve, poor fit]

Compound | AC50 [1] | AC50 [2]
COc1ccc(-c2cc(C(=O)Nc3cccc(O)c3)no2)cc1 | – | 10 µM [falling, partial curve]
NC(=O)COc1ccc(=O)n(-c2ccccc2)n1 | – | 29.1 µM [rising, single point]
C#CCOCCOCCOCCNc1nc(N2CCN(C(=O)CCCCCCCCCCNC(=O)Cn3cc(C[C@@H](C)O)nn3)CC2)nc(N2CCN(C(=O)CCCCCCCCCCNC(=O)[C@@H]([C@H](C)O)n3cc(C)nn3)CC2)n1 | – | 4.11 µM [rising, full curve]
CC(C)(C)c1ccc(OC2=CS(=O)(=O)c3ccccc32)cc1 | – | 1.84 µM [rising, partial curve]
CCCC(=O)NC(=S)Nc1cccc(NC(=O)c2ccccc2)c1 | – | 11.2 µM [falling, partial curve]
O=C(CN1CCC(n2nnc3cc(C(F)(F)F)ccc32)CC1)Nc1ccc2c(c1)OCCO2 | – | 35.5 µM [falling, single point]
COc1ccccc1N1CCN(C(=O)C(=O)c2cn(CC(=O)N3CCCCCC3)c3ccccc23)CC1 | – | 11.2 µM [falling, single point]
CCCCC(=O)Nc1cc([N+](=O)[O-])ccc1F | – | 25.1 µM [falling, single point]
N#Cc1ccccc1Sc1ccccc1C(=O)OCc1nnc(-c2ccccc2)o1 | – | 29.1 µM [falling, single point]
CSc1nc(N)nc(SCC(=O)Nc2cccc(F)c2)c1C#N | – | 2.31 µM [falling, full curve]
Cc1ccc(OCCCC(=O)NNC(=O)c2ccccn2)cc1 | – | 29.1 µM [rising, single point]
Cc1ccc(C(=O)O/N=C(\N)c2cccnc2)cc1[N+](=O)[O-] | – | 2.31 µM [rising, full curve]
CC(C)c1ccc(Nc2cnn(C34CC5CC(CC(CC(=O)O)(C5)C3)C4)c(=O)c2Cl)cc1 | – | 14.6 µM [rising, partial curve, poor fit]
CC1(C)SC(=S)N(/N=C/c2ccccc2O)C1N(O)C(=O)Nc1ccccc1 (stereo not given) | 3.98 µM [rising, partial curve, poor fit] | 10 µM [falling, partial curve, poor fit]
COc1ccc(OCCSCc2nnc(NC(=O)Nc3ccc(Cl)cc3)s2)cc1 | – | 9.2 µM [rising, partial curve]
Cc1ccc2c(c1)NC(=O)[C@@]1(C)[C@@H](c3ccccc3)[C@H]3COc4ccc(Cl)cc4[C@@H]3N1C2=O | – | 2.91 µM [falling, full curve]
COc1ccc(-c2cc(C(=O)Nc3nc4c(C)cccc4s3)c3ccccc3n2)cc1OC | – | 2.51 µM [falling, partial curve, poor fit]
O=c1c2c(nc3cc(-c4ccccc4)[nH]n13)CCS2 | – | 0.447 µM [falling, full curve]
Fc1ccc(-n2nnnc2-c2cnc(-c3cccs3)nc2C(F)(F)F)cc1 | – | 35.5 µM [falling, single point]
C/C(O)=C(/C=NCC(=O)O)C(=O)Nc1nccs1 | – | 12.6 µM [falling, partial curve, poor fit]

At a glance, some entries already given:
Compound | AC50 [1] | AC50 [2]
Cc1cc(C)n(CCC(=O)Nc2ccc3c(c2)OCCO3)n1 | – | 22.4 µM [falling, partial curve, poor fit]
C=CCn1c(SCC(O)Cn2c3ccccc3c3ccccc32)nnc1-c1ccco1 (stereo not given) | – | 0.366 µM [falling, full curve, poor fit]
COc1ccc(N=C(NN)c2ccc3ccccc3n2)cc1 | – | 3.66 µM [rising, partial curve, poor fit]
CCOC(=O)c1c(NC(=O)COC(=O)c2ccccn2)sc2c1CCC2 | – | 29.1 µM [rising, single point]
Cc1cc(C)cc(OCC(=O)O/N=C(\N)c2ccccn2)c1 | – | 20.6 µM [falling, partial curve]
COc1ccccc1N(CC(O)Cn1c2ccccc2c2ccccc21)S(=O)(=O)c1ccccc1 (stereo not given) | – | 16.4 µM [falling, partial curve, poor fit]
O=C(OCC(=O)N1CCc2ccccc2C1)c1c(F)cccc1Cl | – | 2.59 µM [rising, partial curve, poor fit]
Cc1ccc(NC(=O)COn2nnc3ccc(S(=O)(=O)N(C)C)cc32)cc1F | – | 18.4 µM [falling, single point]
CC(Sc1nc(-c2ccccc2)cc(=O)[nH]1)C(=O)O (stereo not given) | – | 0.146 µM [falling, full curve, poor fit]
Cc1ccc2c(C)nc(NC3=NCN(Cc4ccccc4)CN3)nc2c1 | – | 29.1 µM [falling, single point]
Cc1cc(NC(=O)/C=C/C(=O)N(c2ccccc2C)C(C(=O)NC2CCCC2)c2ccc(F)cc2)no1 (stereo not given) | – | 7.08 µM [falling, partial curve, poor fit]
Cc1ccc(NC(=O)CC2COc3ccccc3O2)cc1 (stereo not given) | – | 0.562 µM [rising, full curve, poor fit]
O=c1cc(/C=C/c2ccccc2)oc2ccccc12 | 23.1 µM [falling, partial curve, poor fit] | 18.4 µM [falling, single point]
